Results are given in words; binding and its absence hold for the method and conditions named. Binding can be weak; no strength is given.

In the assay the target is His6-GluN1 cytoplasmic domain (residues 834–938) (UniProt P35439). The assay can be described thus: ELISA; 10 µg/ml cleaved ICAM-5 WT, mutated or His6-GluN1 cytoplasmic protein coated on 96-well plates, blocked with 5% BSA (ICAM-5) or 2% sucrose/0.1% BSA/0.9% NaCl (His6-GluN1cyto); GST-α-actinin R proteins incubated 1 h; detected with peroxidase-conjugated GST antibody, absorbance at 492 nm; values normalized to BSA binding; both purified.

On to “GST-α-actinin R1-R4 (the whole rod domain) (from UniProt P05094) (domain or fragment)”, for which the binding entry is listed as “binds”.
